Experimental findings from PubChem BioAssay AID2685 (National Center for Advancing Translational Sciences (NCATS), 2010) are described below.

A short description of this experiment: qHTS Assay for Lipid Storage Modulators in Drosophila S3 Cells.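 For cell number change: cells counted by Cell Tracker Red CMTPX staining in the red channel.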 The note with it: BODIPY lipid droplet fluorescence, 18-24 h; for cell number change: measured here: cell count max response, cells fed with added oleic acid. The method in brief: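 Drosophila S3 cells loaded with oleic acid (400 uM, as added) and compounds at several concentrations; lipid droplets imaged by 488-nm laser-scanning cytometry, 500–530 nm intensity and object ratio to cell channel. Percent activity normalized to 20 uM Triacsin C.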

Where [1] appears, read: measured here: lipid fluorescence (Fed channel) AC50, cells fed with added oleic acid.
Where [2] appears, read: measured here: cell number channel AC50, cells fed with added oleic acid.

Some of the results follow. These are further read-outs of the screen, such as a control signal, another cell line or another target. No call is given for them. Most of these compounds were active or inconclusive in the main read-out, so they are no random draw. The note in brackets gives the kind of curve behind each potency; many fits are weak. Where a SMILES comes first, the peptide text is derived from it. The star is where a group is joined. Cbz = O=C(OCc1ccccc1)*

Usually AC50 stands for the midpoint of the concentration-response curve, whichever way the signal moves.

On to `CCOc1ccccc1C(=O)NCC(=O)Nc1ccc2c(c1)OCO2`, for which the cell number change was -7.84%. For the same compound, the AC50 under setting [1] is 2.31 µM [falling, single point]. Consider `CC(C)C(NC(=O)C12CC3CC(CC(C3)C1)C2)C(=O)O` (stereo unspecified), for which the cell number change was -5.38%.

On to `Cc1ccc2c(c1)c1nnc(SCC(=O)Nc3ccc(N(C)C)cc3)nc1n2CC(=O)O`, for which the cell number change is 8.47%. Moreover, the AC50 under setting [1] is 5.8 µM [falling, single point]. As to `CC(C)OC(=O)/C(=C\c1ccc2c(c1)c1ccccc1n2C)NC(=O)c1ccccc1`, the cell number change is 20.1%. Regarding `COC(=O)c1sccc1NC(=O)Nc1cc(C)ccc1OC`, the AC50 by setting is: under setting [2], 0.116 µM [falling, full curve, poor fit]; under setting [1], 29.1 µM [falling, single point]. For the compound `CCOC(=O)N1CCN(C(=O)c2c(-c3ccccc3Cl)noc2C)CC1`, the cell number change is 10.9%. Take `Cc1ccc(-c2csc(NC3OC(=O)c4ccccc43)n2)cc1` (stereo unspecified): the cell number change was 35.2%. The AC50 under setting [2] was 9.2 µM [rising, partial curve, poor fit]. Moreover, the half-maximal activity concentration (AC50) under setting [1] was 6.51 µM [rising, full curve]. With `O=S(=O)(NCCOCC(F)(F)C(F)F)c1ccc2oc3ccccc3c2c1`, the cell number change was -5.78%.

Regarding `NC(=O)c1oc2ccc(Cl)cc2c1NC(=O)CN1CCOCC1`, the AC50 runs as follows: under setting [2], 1.84 µM [rising, partial curve]; under setting [1], 0.731 µM [rising, single point]. For `CCC(CC)c1nnc(NC(=O)c2cc(C(=O)OC)cc([N+](=O)[O-])c2)s1`, the cell number change stood at 34.9%. Under setting [2], the half-maximal activity concentration (AC50) is 8.2 µM [rising, partial curve]. The AC50 under setting [1] was 32.6 µM [rising, single point]. Turning to `CN(C)C(CNC(=O)C1CCN(S(=O)(=O)c2cccc(C(F)(F)F)c2)CC1)c1ccccc1` (stereo unspecified), the cell number change was found to be 12.1%. `COCc1cc(C)nc(SCC[N+](C)(C)CC(=O)Nc2ccccc2)c1C#N`: the cell number change is -3.08%. The half-maximal activity concentration (AC50) under setting [2] is 7.31 µM [falling, single point]. For the same compound, under setting [1], the AC50 was 6.51 µM [falling, single point]. In the case of `O=C(Nc1ccc(Cl)c([N+](=O)[O-])c1)C(Sc1ccccc1)c1ccccc1` (stereo unspecified), the cell number change was -16.7%. Further, the AC50 under setting [1] is 29.1 µM [falling, single point].

With `Cc1ccc(C(=O)NNC(=O)C(NC(=O)c2cccc(C)c2)C(C)C)cc1` (stereo unspecified), the cell number change was -3.75%. Besides, the half-maximal activity concentration (AC50) under setting [1] was 29.1 µM [rising, single point]. As to `CCS(=O)(=O)N1CCCC(C(=O)NC2CCCC2)C1` (stereo unspecified), the cell number change turned out to be 36.3%. For the same compound, under setting [1], the AC50 was 32.6 µM [rising, single point]. For `Cc1ccc2nsnc2c1NC(=O)c1ccccc1[N+](=O)[O-]`, the cell number change was found to be 41.7%. Moreover, the AC50 under setting [2] was 29.1 µM [rising, single point]. Further, the half-maximal activity concentration (AC50) under setting [1] is 2.91 µM [falling, partial curve]. On to `Cc1ccc(S(=O)(=O)N(CCC#N)C2CCCCC2)c2nsnc12`, for which the cell number change is -0.817%. Moreover, the half-maximal activity concentration (AC50) under setting [1] was 0.146 µM [falling, full curve, poor fit]. Consider `COc1cnc(-c2ccccn2)nc1N(C)c1ccccc1`, for which the cell number change was -21.7%. Besides, the AC50 under setting [1] is 29.1 µM [falling, single point]. As for `Cc1cc(C)c2oc(-c3cccc(NC(=O)c4ccc(F)cc4)c3)nc2c1`, the concentration at half-maximal activity (AC50) by setting is: under setting [2], 0.517 µM [rising, full curve]; under setting [1], 2.06 µM [rising, partial curve]. On to `COc1ccc(-c2noc(-c3ccc4c(c3)OCO4)n2)cc1`, for which the cell number change is -20.1%. In addition, the AC50 under setting [1] was 1.03 µM [falling, full curve].

With `COc1ccccc1NC(=O)Cc1noc(CN(C)Cc2cccs2)n1`, the cell number change is 24.6%. Besides, the concentration at half-maximal activity (AC50) under setting [1] was 0.0291 µM [rising, full curve, poor fit]. `CC(C)[C@H](NC(=O)OCc1ccccc1)C(=O)N[C@@H](Cc1c[nH]c2ccccc12)C(=O)O` (Cbz-Val-Trp-OH): the cell number change amounted to 14%. The half-maximal activity concentration (AC50) under setting [1] is 1.46 µM [rising, partial curve, poor fit]. For the compound `O=C(O)COc1cccc2ccccc12`, under setting [1], the concentration at half-maximal activity (AC50) was 3.66 µM [falling, partial curve]. As for `O=[N+]([O-])c1cccc(/C=N/N2CCN(Cc3ccc(Cl)cc3)CC2)c1`, the cell number change stood at 9.01%. Besides, under setting [1], the concentration at half-maximal activity (AC50) was 0.164 µM [rising, full curve, poor fit].

`COc1ccccc1C(=O)NC1CCN(C(=O)Nc2ccc(C)cc2)CC1`: the cell number change came to 26.2%. Moreover, the AC50 under setting [1] is 0.116 µM [rising, single point].

For the compound `COc1ccc(C(=O)N/N=C/c2ccc(N3CCOCC3)s2)cc1OC`, the cell number change turned out to be 7.59%. In addition, under setting [1], the AC50 was 16.4 µM [rising, partial curve, poor fit]. `C[C@H](NS(=O)(=O)c1ccc2c(c1)OCCCO2)C(=O)N1CCN(Cc2ccc(C#N)cc2)CC1`: the cell number change worked out at 22.4%. Under setting [1], the AC50 was 7.31 µM [falling, partial curve, poor fit].

Regarding `COc1ccc(NS(=O)(=O)c2ccc(NS(=O)(=O)c3cccs3)cc2)c(OC)c1`, the cell number change is -5.24%. In the case of `COC(=O)c1sc2cc(=O)n(-c3cccc(C(F)(F)F)c3)nc2c1O`, the cell number change is 40.8%. Moreover, under setting [2], the half-maximal activity concentration (AC50) is 18.4 µM [rising, single point]. Under setting [1], the AC50 was 16.4 µM [rising, single point]. Regarding `CC(=O)OCC(=O)[C@@]1(O)CC[C@H]2[C@@H]3CCC4=CC(=O)C=C[C@]4(C)[C@H]3[C@@H](O)C[C@@]21C`, the cell number change is -6.33%. In addition, under setting [1], the AC50 is 0.00517 µM [rising, full curve, poor fit]. In the case of `O=C(Cn1cnc2c(cnn2-c2ccc(Cl)cc2)c1=O)N1CCN(c2ccccc2)CC1`, the cell number change came to 0.962%. The AC50 under setting [1] was 2.59 µM [falling, full curve]. For `Cc1ccc(N2CC(C(=O)OCC(=O)Nc3ccc(Cl)cc3)CC2=O)cc1` (stereo unspecified), the cell number change is -12.2%. In addition, the concentration at half-maximal activity (AC50) under setting [1] is 0.517 µM [rising, partial curve, poor fit].

For `Cc1c(CCC(=O)N[C@@H](C)C(=O)O)c(=O)oc2cc3occ(-c4ccccc4)c3cc12`, the cell number change was 26.4%. The AC50 under setting [1] was 2.06 µM [falling, partial curve].

Regarding `CCCNC(=O)CN1CCN(S(=O)(=O)c2ccc(Br)s2)CC1`, the cell number change was -6.61%. Turning to `[N-]=[N+]=CC(=O)CNC(=O)[C@@H](Cc1ccccc1)N1C(=O)c2ccccc2C1=O`, the cell number change came to 1.61%. `CSc1nc(N(C)NC(=O)c2ccccc2)c2ccccc2n1`: under setting [1], the concentration at half-maximal activity (AC50) was 0.259 µM [rising, full curve, poor fit]. `Cc1ccc(C(=O)CCNc2ccccc2)o1`: the cell number change came to 3.76%. Further, under setting [1], the concentration at half-maximal activity (AC50) is 32.6 µM [falling, single point]. Regarding `O=C(Nc1nc2cc3c(cc2s1)OCO3)C1=COCCO1`, the cell number change was found to be 9.56%. The half-maximal activity concentration (AC50) under setting [1] is 0.0058 µM [rising, full curve, poor fit].
